Assay results reported in publication PMC7578833.

What was measured:
[1] = molecular target: PDE2A2-GFP; experiment: co-IP; HEK293T cells transiently transfected; RIPA lysate; 2 h at 4 °C with anti-RFP/GFP beads (Chromotek) or anti-FLAG M2 beads; washed with Tris-HCl 0.1 M, NaCl 0.3 M, Triton X-100 1%, pH 7.5; Western blot
[2] = molecular target: PDE2A2-RFP; experiment: as above

Row | Binder | binding [1] | binding [2]
1 | endogenous SAMM50 (HEK293T) (protein, UniProt Q9Y512 1-469) MGTVHARSLEPLPSSGPDFGGLGEEAEFVEVEPEAKQEILENKDVVVQHVHFDGLGRTKDDIIICEIGDVFKAKNLIEVMRKSHEAREKLLRLGIFRQVDVLIDTCQGDDALPNGLDVTFEVTELRRLTGSYNTMVGNNEGSMVLGLKLPNLLGRAEKVTFQFSYGTKETSYGLSFFKPRPGNFERNFSVNLYKVTGQFPWSSLRETDRGMSAEYSFPIWKTSHTVKWEGVWRELGCLSRTASFAVRKESGHSLKSSLSHAMVIDSRNSSILPRRGALLKVNQELAGYTGGDVSFIKEDFELQLNKQLIFDSVFSASFWGGMLVPIGDKPSSIADRFYLGGPTSIRGFSMHSIGPQSEGDYLGGEAYWAGGLHLYTPLPFRPGQGGFGELFRTHFFLNAGNLCNLNYGEGPKAHIRKLAECIRWSYGAGIVLRLGNIARLELNYCVPMGVQTGDRICDGVQFGAGIRFL | binds | 
2 | SAMM50-FLAG (protein, UniProt Q9Y512 1-469) MGTVHARSLEPLPSSGPDFGGLGEEAEFVEVEPEAKQEILENKDVVVQHVHFDGLGRTKDDIIICEIGDVFKAKNLIEVMRKSHEAREKLLRLGIFRQVDVLIDTCQGDDALPNGLDVTFEVTELRRLTGSYNTMVGNNEGSMVLGLKLPNLLGRAEKVTFQFSYGTKETSYGLSFFKPRPGNFERNFSVNLYKVTGQFPWSSLRETDRGMSAEYSFPIWKTSHTVKWEGVWRELGCLSRTASFAVRKESGHSLKSSLSHAMVIDSRNSSILPRRGALLKVNQELAGYTGGDVSFIKEDFELQLNKQLIFDSVFSASFWGGMLVPIGDKPSSIADRFYLGGPTSIRGFSMHSIGPQSEGDYLGGEAYWAGGLHLYTPLPFRPGQGGFGELFRTHFFLNAGNLCNLNYGEGPKAHIRKLAECIRWSYGAGIVLRLGNIARLELNYCVPMGVQTGDRICDGVQFGAGIRFL |  | binds

No constants are given. Whether binding was seen depends on the method and setting. In cells and extracts the contact can be indirect. A result given as binding can be weak or reduced; the word gives no strength. For some assays here: Where a sequence is shown, tags or fusion partners need not be part of it.
